Test results published in article PMC6350196 (Drug Metabolism Letters, 2018).

Assay: QSRR estimation of CHIn+Fbt and CHIbt from LC retention times
Assay type: physicochemical
Conditions: predicted (QSRR, equation 13); parent-drug label = average for that drug

CHIbt, lactonization (acid dehydration to lactone): 6.2
SMILES: CC(C)c1c(C(=O)Nc2ccccc2)c(-c2ccccc2)c(-c2ccc(F)cc2)n1CC[C@@H](O)C[C@@H](O)CC(=O)O [atorvastatin]
